# Results: PubChem BioAssay AID1487 (National Center for Advancing Translational Sciences (NCATS), 2009)
# The list shows a part of the results. These are further read-outs of the screen, such as a control signal, another cell line or another target. No call is given for them. The list favours compounds with an active or inconclusive main result. The note in brackets gives the kind of curve behind each potency; many fits are weak.
# Assay: qHTS Assay for Modulators of Lamin A Splicing
# Details: HeLa LMNA splicing GFP/RFP minigene ratio, 48 h
# How it was run: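 Read-out is the ratio of GFP to DsRed2 object intensity, acquired by 488 nm laser-scanning cytometry on HeLa lamin A-EGFP minigene reporter cells. Compound incubation 48 hrs at 37 °C in Opti-MEM with 2% FBS; DMSO 0.5% final.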
# [1] = measured here: RFP viability control channel
# [2] = measured here: GFP splicing reporter channel
Structure (SMILES),AC50 [1],AC50 [2]
CCN(CC)S(=O)(=O)c1ccc(NCc2ccccc2)nc1,"20 µM [rising, single point]",–
COc1ccccc1NC(C)C(=O)N/N=C/c1ccccc1OCc1cccc(Br)c1 (configuration not stated),"25.1 µM [rising, single point]",–
Cc1ccc(S(=O)(=O)N2CCCN(S(=O)(=O)c3ccc4c(c3)OCCO4)CC2)cc1,"15.8 µM [rising, partial curve]",–
O=C(NCc1ccco1)c1ccc(S(=O)(=O)N2CCCc3ccccc32)cc1,"15.8 µM [rising, single point]",–
Cc1ccc(OCCSCc2nnc(NC(=O)Nc3cccc(Cl)c3)s2)cc1,"3.98 µM [rising, partial curve]","2.51 µM [rising, partial curve]"
Cc1nnc(NC(=O)CSc2ccc(-c3ccc(Cl)cc3)nn2)s1,–,"0.112 µM [rising, full curve, poor fit]"
NS(=O)(=O)c1ccc(CCNC(=O)Nc2ccc(Cl)c(Cl)c2)cc1,"12.6 µM [rising, partial curve]","12.6 µM [rising, partial curve]"
O=C(C1CCC(Cn2c(=O)c3sccc3n(Cc3ccccc3F)c2=O)CC1)N1CCOCC1 (configuration not stated),"0.00447 µM [falling, full curve, poor fit]","0.00316 µM [falling, full curve, poor fit]"
O=[N+]([O-])c1cc(S(=O)(=O)NCCN2CCOCC2)ccc1Sc1nnnn1-c1ccccc1,"3.16 µM [falling, partial curve, poor fit]","35.5 µM [falling, partial curve, poor fit]"
CCN(CC)S(=O)(=O)c1cc([N+](=O)[O-])ccc1NNC(=O)Nc1ccc(Cl)c(Cl)c1,"17.8 µM [rising, single point]",–
Cc1cccc(-n2c(N)cc(=O)nc2SC(C)C(=O)NC2CCCCC2)c1 (configuration not stated),"12.6 µM [rising, single point]",–
CCOC(=O)c1c(-c2ccccc2)csc1NC(=O)c1cccc(N2C(=O)CCC2=O)c1,"35.5 µM [falling, single point]","35.5 µM [falling, single point]"
CO/N=C/c1ccc(Sc2ccccc2)c([N+](=O)[O-])c1,–,"0.02 µM [rising, full curve, poor fit]"
O=C(CSc1nc2c([nH]c3ccccc32)c(=O)n1-c1ccc(Cl)cc1)NC1CCCCC1,"15.8 µM [falling, partial curve]","15.8 µM [falling, partial curve]"
CCCCn1ccnc1C(=O)c1cccc(S(=O)(=O)N2c3ccccc3CC2C)c1 (configuration not stated),"35.5 µM [rising, single point]",–
O=C(c1ccc(CNS(=O)(=O)c2ccccc2)cc1)N1CCN(Cc2ccccc2)CC1,"11.2 µM [rising, partial curve]",–
COc1ccccc1NC(=O)c1c(C)cc(C)nc1SCC(=O)Nc1ccc(C)cc1,"0.000794 µM [falling, full curve, poor fit]","35.5 µM [falling, partial curve, poor fit]"
O=C(Nc1cccc(Cl)c1)Nn1cnnc1,"10 µM [falling, partial curve]","12.6 µM [falling, partial curve]"

Structure (SMILES),AC50 [1],AC50 [2]
COc1ccc(NC(C#N)c2ccccc2OCc2ccccc2)cc1 (configuration not stated),"35.5 µM [rising, single point]",–
O=C(/C=C/c1cnc2ccccc2n1)NC12CC3CC(CC(C3)C1)C2,"12.6 µM [rising, single point]",–
Cc1cccc(N(C)C(=O)c2cc3cc4ccc(C)cc4nc3o2)c1,"6.31 µM [rising, full curve]",–
COc1cccc(NC(=O)N2CCN(c3cccc(C)c3C)CC2)c1,"12.6 µM [rising, single point]",–
O=C(CC(c1ccccc1)c1ccco1)Nc1nccs1 (configuration not stated),"14.1 µM [rising, single point]",–
O=C(CN1CCN(c2ccccn2)CC1)N(c1ccccc1)c1ccc2ccccc2c1,"14.1 µM [rising, partial curve]",–
COc1ccc(-c2n[nH]c(C)c2-c2cnn(-c3ccccc3)c2)c(O)c1C,"0.316 µM [rising, partial curve, poor fit]",–
Oc1ccc(NCc2ccccc2OCc2ccccc2)cc1,"35.5 µM [rising, single point]","14.1 µM [rising, partial curve, poor fit]"
CC1CCN(S(=O)(=O)c2cc(C(=O)N3CCN(c4ncccn4)CC3)ccc2Br)CC1,"12.6 µM [rising, partial curve]","11.2 µM [rising, partial curve]"
CCOc1cc(C(=O)N/N=C/c2ccsc2)cc(OCC)c1OCC,"31.6 µM [rising, single point]",–
COCCN(CC(=O)Nc1ccc(F)cc1)S(=O)(=O)c1ccc(S(=O)(=O)N2CCCC2)cc1,"5.62 µM [falling, single point]",–
CCOc1ccc(CNC(=O)c2cc3cc(S(=O)(=O)N4CCCCC4)ccc3n2C)cc1,–,"0.794 µM [rising, full curve, poor fit]"
Cc1ccc(Nc2cc(C)nc(NCc3ccccc3)n2)cc1,"11.2 µM [rising, partial curve]","7.08 µM [rising, partial curve]"
CS(=O)(=O)NCCSCc1c(F)cccc1Cl,"22.4 µM [rising, single point]",–
Cc1nn(-c2ccccc2)c2sc(C(=O)c3c(N)n(C)c(=O)n(C)c3=O)cc12,"20 µM [rising, single point]","0.708 µM [rising, full curve, poor fit]"
COc1ccc(C(=O)N2c3ccccc3C=CC2C#N)cc1 (configuration not stated),"5.62 µM [rising, partial curve, poor fit]",–
Cc1cnc(NC(=O)CSc2ncc(-c3ccccc3)n2Cc2ccco2)s1,"35.5 µM [rising, single point]",–

# One compound at a time (already shown). Order of values: AC50 [1] | AC50 [2]
# Cc1ccc(OCCSCc2nnc(NC(=O)Nc3cccc(Cl)c3)s2)cc1 is listed with 3.98 µM [rising, partial curve] | 2.51 µM [rising, partial curve]
# CCCCn1ccnc1C(=O)c1cccc(S(=O)(=O)N2c3ccccc3CC2C)c1 (configuration not stated) is listed with 35.5 µM [rising, single point] | –
